Data as given in patent publication US12723078.
Results are given in words; binding and its absence hold for the method and conditions named. Some binding calls cover weakened binding; strength is not graded here.

Sequences of proteins named here, by UniProt entry; tags and fusion partners are left off. A change or cut given only in a name is not applied to a line headed by its entry. A line that says so, or that is headed by a name, gives the form on record, which may keep a tag or linker. Residues count along the entry.
UniProt P59901, residues 24-499: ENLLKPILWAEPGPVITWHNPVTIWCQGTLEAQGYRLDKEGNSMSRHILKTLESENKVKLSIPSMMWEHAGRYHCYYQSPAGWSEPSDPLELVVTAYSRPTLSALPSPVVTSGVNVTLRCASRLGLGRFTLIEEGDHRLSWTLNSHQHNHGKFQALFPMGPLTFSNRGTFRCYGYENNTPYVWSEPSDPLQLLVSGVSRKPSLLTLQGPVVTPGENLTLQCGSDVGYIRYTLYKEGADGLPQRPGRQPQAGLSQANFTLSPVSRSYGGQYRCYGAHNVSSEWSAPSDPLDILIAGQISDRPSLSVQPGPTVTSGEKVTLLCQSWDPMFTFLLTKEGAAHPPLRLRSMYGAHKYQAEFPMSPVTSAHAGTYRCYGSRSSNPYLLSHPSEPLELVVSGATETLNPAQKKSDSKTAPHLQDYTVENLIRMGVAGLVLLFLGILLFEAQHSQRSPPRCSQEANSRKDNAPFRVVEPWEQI
UniProt O75022, residues 24-631: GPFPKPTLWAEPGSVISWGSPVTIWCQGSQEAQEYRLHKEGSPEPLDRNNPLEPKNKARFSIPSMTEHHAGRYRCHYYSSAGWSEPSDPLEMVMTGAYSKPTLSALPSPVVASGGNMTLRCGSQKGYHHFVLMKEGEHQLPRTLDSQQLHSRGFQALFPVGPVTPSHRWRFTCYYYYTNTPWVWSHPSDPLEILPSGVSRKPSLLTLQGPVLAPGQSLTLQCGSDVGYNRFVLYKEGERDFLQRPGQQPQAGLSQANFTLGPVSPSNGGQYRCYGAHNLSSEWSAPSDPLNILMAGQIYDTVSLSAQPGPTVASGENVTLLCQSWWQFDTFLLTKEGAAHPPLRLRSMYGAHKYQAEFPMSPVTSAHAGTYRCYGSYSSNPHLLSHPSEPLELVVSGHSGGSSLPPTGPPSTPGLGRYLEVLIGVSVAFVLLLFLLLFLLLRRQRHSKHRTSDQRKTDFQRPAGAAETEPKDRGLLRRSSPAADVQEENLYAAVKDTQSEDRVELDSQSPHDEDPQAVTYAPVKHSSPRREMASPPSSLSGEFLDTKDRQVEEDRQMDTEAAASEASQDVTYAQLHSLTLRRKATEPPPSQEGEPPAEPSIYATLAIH
UniProt Q8N6C8, residues 24-439: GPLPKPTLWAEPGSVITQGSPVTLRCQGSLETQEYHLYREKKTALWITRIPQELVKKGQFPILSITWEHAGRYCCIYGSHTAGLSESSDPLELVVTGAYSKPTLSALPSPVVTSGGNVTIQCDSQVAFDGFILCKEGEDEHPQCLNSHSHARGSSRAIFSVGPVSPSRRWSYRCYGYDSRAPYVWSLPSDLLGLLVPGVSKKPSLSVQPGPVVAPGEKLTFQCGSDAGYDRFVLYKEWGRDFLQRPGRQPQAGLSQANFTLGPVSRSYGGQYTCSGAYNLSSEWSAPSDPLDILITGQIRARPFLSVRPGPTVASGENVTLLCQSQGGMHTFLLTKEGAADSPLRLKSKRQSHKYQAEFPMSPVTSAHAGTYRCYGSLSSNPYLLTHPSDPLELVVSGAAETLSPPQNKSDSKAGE
UniProt Q8N423: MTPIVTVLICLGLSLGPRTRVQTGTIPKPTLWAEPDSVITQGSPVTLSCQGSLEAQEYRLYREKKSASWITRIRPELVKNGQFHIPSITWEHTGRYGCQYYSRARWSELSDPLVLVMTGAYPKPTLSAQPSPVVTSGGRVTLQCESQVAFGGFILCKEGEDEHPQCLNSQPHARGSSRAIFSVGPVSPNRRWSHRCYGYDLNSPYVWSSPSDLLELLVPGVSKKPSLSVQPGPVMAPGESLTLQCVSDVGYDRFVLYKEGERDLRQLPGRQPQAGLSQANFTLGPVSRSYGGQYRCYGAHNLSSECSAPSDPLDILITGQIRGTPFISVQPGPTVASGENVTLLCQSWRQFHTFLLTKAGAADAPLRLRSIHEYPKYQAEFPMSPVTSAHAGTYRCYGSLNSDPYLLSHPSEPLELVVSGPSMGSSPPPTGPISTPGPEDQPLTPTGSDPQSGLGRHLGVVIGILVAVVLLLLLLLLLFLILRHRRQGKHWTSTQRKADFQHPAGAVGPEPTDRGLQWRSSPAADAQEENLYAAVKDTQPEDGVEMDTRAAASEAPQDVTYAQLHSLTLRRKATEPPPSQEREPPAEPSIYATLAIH
LILRB2 on reporter cells: residues 22-597 of Q8N423
LILRB2: residues 22-460 of Q8N423
UniProt Q8NHJ6, residues 22-448: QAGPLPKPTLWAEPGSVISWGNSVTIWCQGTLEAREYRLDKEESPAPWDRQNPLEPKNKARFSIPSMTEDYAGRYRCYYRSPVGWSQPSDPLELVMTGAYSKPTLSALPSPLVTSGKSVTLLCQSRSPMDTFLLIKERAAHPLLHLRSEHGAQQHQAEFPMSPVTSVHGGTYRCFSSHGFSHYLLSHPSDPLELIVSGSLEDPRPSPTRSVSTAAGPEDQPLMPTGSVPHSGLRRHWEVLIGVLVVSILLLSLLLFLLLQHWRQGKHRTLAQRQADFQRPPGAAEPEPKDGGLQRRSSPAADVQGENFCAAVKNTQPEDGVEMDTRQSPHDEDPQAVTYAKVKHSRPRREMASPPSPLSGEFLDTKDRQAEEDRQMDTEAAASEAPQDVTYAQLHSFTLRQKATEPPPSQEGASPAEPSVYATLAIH
UniProt A6NI73: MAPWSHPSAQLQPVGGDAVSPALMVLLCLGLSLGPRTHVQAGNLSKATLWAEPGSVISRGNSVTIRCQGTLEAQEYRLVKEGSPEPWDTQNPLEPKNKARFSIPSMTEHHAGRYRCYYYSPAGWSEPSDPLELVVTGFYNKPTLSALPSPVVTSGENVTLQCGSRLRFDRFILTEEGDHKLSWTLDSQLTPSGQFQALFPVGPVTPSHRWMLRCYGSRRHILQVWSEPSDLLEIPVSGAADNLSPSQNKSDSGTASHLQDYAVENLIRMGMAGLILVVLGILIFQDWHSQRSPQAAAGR
LILRA5 on reporter cells: residues 42-299 of A6NI73
LILRA5: residues 42-268 of A6NI73
UniProt Q6PI73: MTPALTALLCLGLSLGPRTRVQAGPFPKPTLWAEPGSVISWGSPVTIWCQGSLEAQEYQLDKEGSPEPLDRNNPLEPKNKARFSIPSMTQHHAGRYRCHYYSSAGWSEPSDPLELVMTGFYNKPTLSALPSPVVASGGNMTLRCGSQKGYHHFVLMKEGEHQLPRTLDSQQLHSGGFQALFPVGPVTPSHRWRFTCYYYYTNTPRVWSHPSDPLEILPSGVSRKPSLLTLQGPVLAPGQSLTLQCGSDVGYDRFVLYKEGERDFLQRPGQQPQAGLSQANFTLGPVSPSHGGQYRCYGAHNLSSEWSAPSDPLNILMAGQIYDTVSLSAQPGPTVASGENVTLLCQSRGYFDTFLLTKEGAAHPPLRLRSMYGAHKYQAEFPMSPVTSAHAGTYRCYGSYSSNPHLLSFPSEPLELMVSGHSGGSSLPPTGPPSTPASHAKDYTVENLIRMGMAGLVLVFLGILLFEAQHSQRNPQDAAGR
LILRA6 on reporter cells: residues 24-481 of Q6PI73
LILRA6: residues 24-447 of Q6PI73
UniProt O75023, residues 24-590: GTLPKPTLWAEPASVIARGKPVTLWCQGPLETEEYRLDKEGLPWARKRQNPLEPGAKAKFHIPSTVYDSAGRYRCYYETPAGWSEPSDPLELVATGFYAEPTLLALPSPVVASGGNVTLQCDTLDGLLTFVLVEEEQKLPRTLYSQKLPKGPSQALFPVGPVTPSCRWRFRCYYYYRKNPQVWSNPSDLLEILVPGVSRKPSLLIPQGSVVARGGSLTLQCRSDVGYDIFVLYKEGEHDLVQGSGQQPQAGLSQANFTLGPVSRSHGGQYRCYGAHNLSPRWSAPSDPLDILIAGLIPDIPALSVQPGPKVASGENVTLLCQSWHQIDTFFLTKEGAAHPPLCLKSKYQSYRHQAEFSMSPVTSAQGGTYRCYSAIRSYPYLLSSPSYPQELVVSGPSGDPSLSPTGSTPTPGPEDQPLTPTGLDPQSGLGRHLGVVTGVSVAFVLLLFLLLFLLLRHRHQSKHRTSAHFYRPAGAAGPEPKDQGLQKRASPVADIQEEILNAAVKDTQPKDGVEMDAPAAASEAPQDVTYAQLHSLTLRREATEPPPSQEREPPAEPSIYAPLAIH
M35 (Q8NHL6, form named): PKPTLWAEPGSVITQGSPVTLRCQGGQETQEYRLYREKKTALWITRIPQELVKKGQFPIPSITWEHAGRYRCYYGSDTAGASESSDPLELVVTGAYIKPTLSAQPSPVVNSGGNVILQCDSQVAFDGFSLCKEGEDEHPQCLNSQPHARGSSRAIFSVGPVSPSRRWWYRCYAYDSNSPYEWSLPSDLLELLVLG

Experiments:
LILRA4 on reporter cells [1] = target: LILRA4 on reporter cells (UniProt P59901); test: flow cytometry on LILR reporter cells, anti-Rabbit-IgG PE
LILRB3 on reporter cells [2] = target: LILRB3 on reporter cells (UniProt O75022); test: as above
LILRA3 on reporter cells [3] = target: LILRA3 on reporter cells (UniProt Q8N6C8); test: as above
LILRB2 on reporter cells [4] = target: LILRB2 on reporter cells (UniProt Q8N423); test: as above
LILRB4 on reporter cells [5] = target: LILRB4 on reporter cells (UniProt Q8NHJ6); test: as above
LILRA5 on reporter cells [6] = target: LILRA5 on reporter cells (UniProt A6NI73); test: as above
LILRA6 on reporter cells [7] = target: LILRA6 on reporter cells (UniProt Q6PI73); test: as above
LILRB5 on reporter cells [8] = target: LILRB5 on reporter cells (UniProt O75023); test: as above
[9] = target: LILRB1 expressed on cell surface (human) (UniProt Q8NHL6); test: flow cytometry on LILR reporter cells, 0.5 µg/mL rabbit B1-176, anti-rabbit IgG PE
[10] = target: LILRB1-D1D2 Fc fusion protein (human) (UniProt Q8NHL6); test: ELISA on LILRB1-Fc fusion proteins with different domain deletion
[11] = target: LILRB1 expressed on cell surface (human) (UniProt Q8NHL6); test: flow cytometry on LILR reporter cells
LILRA5 (human) [12] = target: LILRA5 (human) (UniProt A6NI73); test: Octet RED96, cross-reactivity table
LILRB2 (human) [13] = target: LILRB2 (human) (UniProt Q8N423); test: Octet RED96, cross-reactivity table
LILRB3 [14] = test: Octet RED96, cross-reactivity table
LILRA6 (human) [15] = target: LILRA6 (human) (UniProt Q6PI73); test: Octet RED96, cross-reactivity table
M35 (human) = M35 (human) (UniProt Q8NHL6); test: ELISA on LILRB1-D1D2 Fc fusion proteins
[16] = target: LILRB1-D1D2 Fc fusion protein (human) (UniProt Q8NHL6); test: ELISA on LILRB1-D1D2 Fc fusion proteins
LILRA5 (human) [17] = target: LILRA5 (human) (UniProt A6NI73); test: ELISA
LILRB2 (human) [18] = target: LILRB2 (human) (UniProt Q8N423); test: ELISA
LILRB3 [19] = test: ELISA
LILRA6 (human) [20] = target: LILRA6 (human) (UniProt Q6PI73); test: ELISA
LILRA4 on reporter cells [21] = target: LILRA4 on reporter cells (UniProt P59901); test: flow cytometry on 2B4 cells expressing the LILR, PE
LILRB3 on reporter cells [22] = target: LILRB3 on reporter cells (UniProt O75022); test: as above
LILRA3 on reporter cells [23] = target: LILRA3 on reporter cells (UniProt Q8N6C8); test: as above
LILRB2 on reporter cells [24] = target: LILRB2 on reporter cells (UniProt Q8N423); test: as above
LILRB4 on reporter cells [25] = target: LILRB4 on reporter cells (UniProt Q8NHJ6); test: as above
LILRA5 on reporter cells [26] = target: LILRA5 on reporter cells (UniProt A6NI73); test: as above
LILRA6 on reporter cells [27] = target: LILRA6 on reporter cells (UniProt Q6PI73); test: as above
LILRB5 on reporter cells [28] = target: LILRB5 on reporter cells (UniProt O75023); test: as above
[29] = target: LILRB1-D1D2 Fc fusion protein (human) (UniProt Q8NHL6); test: ELISA on LILRB1 domain-Fc fusion proteins, one condition, concentration not given
[30] = target: LILRB1 expressed on cell surface (human) (UniProt Q8NHL6); test: flow cytometry on 2B4 cells expressing the LILR, PE; antibody concentration not given
[31] = target: LILRB1 expressed on cell surface (human) (UniProt Q8NHL6); test: flow cytometry on LILR reporter cells, 0.5 µg/mL rabbit B1-176, anti-Rabbit-IgG PE
LILRA4 on reporter cells [32] = target: LILRA4 on reporter cells (UniProt P59901); test: flow cytometry on LILR reporter cells, anti-rabbit IgG PE
LILRB3 on reporter cells [33] = target: LILRB3 on reporter cells (UniProt O75022); test: as above
LILRA3 on reporter cells [34] = target: LILRA3 on reporter cells (UniProt Q8N6C8); test: as above
LILRB2 on reporter cells [35] = target: LILRB2 on reporter cells (UniProt Q8N423); test: as above
LILRB4 on reporter cells [36] = target: LILRB4 on reporter cells (UniProt Q8NHJ6); test: as above
LILRA5 on reporter cells [37] = target: LILRA5 on reporter cells (UniProt A6NI73); test: as above
LILRA6 on reporter cells [38] = target: LILRA6 on reporter cells (UniProt Q6PI73); test: as above
LILRB5 on reporter cells [39] = target: LILRB5 on reporter cells (UniProt O75023); test: as above

binding (LILRA4 on reporter cells [1]): no binding (tested: 0.5 µg/mL)
binding (LILRB3 on reporter cells [2]): no binding (tested: 0.5 µg/mL)
binding (LILRA3 on reporter cells [3]): no binding (tested: 0.5 µg/mL)
binding (LILRB2 on reporter cells [4]): no binding (tested: 0.5 µg/mL)
binding (LILRB4 on reporter cells [5]): no binding (tested: 0.5 µg/mL)
binding (LILRA5 on reporter cells [6]): no binding (tested: 0.5 µg/mL)
binding (LILRA6 on reporter cells [7]): no binding (tested: 0.5 µg/mL)
binding (LILRB5 on reporter cells [8]): no binding (tested: 0.5 µg/mL)
binding [9]: binds
binding [10]: binds
binding [11]: binds
binding (LILRA5 (human) [12]): no binding (tested: not given)
binding (LILRB2 (human) [13]): no binding (tested: not given)
binding (LILRB3 [14]): no binding (tested: not given)
binding (LILRA6 (human) [15]): no binding (tested: not given)
binding [16]: binds
binding (LILRA4 on reporter cells [21]): no binding (tested: not given)
binding (LILRB3 on reporter cells [22]): no binding (tested: not given)
binding (LILRA3 on reporter cells [23]): no binding (tested: not given)
binding (LILRB2 on reporter cells [24]): no binding (tested: not given)
binding (LILRB4 on reporter cells [25]): no binding (tested: not given)
binding (LILRA5 on reporter cells [26]): no binding (tested: not given)
binding (LILRA6 on reporter cells [27]): no binding (tested: not given)
binding (LILRB5 on reporter cells [28]): no binding (tested: not given)
binding [29]: binds
binding [30]: binds
binding [31]: binds
binding (LILRA4 on reporter cells [32]): no binding (tested: 0.5 µg/mL)
binding (LILRB3 on reporter cells [33]): no binding (tested: 0.5 µg/mL)
binding (LILRA3 on reporter cells [34]): no binding (tested: 0.5 µg/mL)
binding (LILRB2 on reporter cells [35]): no binding (tested: 0.5 µg/mL)
binding (LILRB4 on reporter cells [36]): no binding (tested: 0.5 µg/mL)
binding (LILRA5 on reporter cells [37]): no binding (tested: 0.5 µg/mL)
binding (LILRA6 on reporter cells [38]): no binding (tested: 0.5 µg/mL)
binding (LILRB5 on reporter cells [39]): no binding (tested: 0.5 µg/mL)
B1: B1-176 rabbit antibody (antibody, V domains shown)
VH: QSLEESEGGLVKPGGTLTLTCTASGFSFSSSYCMCWVRQAPGKGLELIACIYTDSSGATYYASWAKGRFTISKSSSTTITLQMTSLTAADTATYFCARGWDYEDPGYTDTTYFSLWGPGTLVTVSS
VL: ELDLTQTPSSVEAAVGGTVTIKCQASQTIYTNLAWYQQKPGQPPNLLIYAASTLASGVSSRFKGSGSGTEFTLTISDLECADAATYYCQSYYGSSTTGNGFGGGTEVEIK
binding (M35 (human)): no binding (tested: 10^3.5 ng/mL (about 3000 ng/mL))
binding (LILRA5 (human) [17]): no binding (tested: 10^3.0 ng/mL (1000 ng/mL))
binding (LILRB2 (human) [18]): no binding (tested: 10^3.0 ng/mL (1000 ng/mL))
binding (LILRB3 [19]): no binding (tested: 10^3.0 ng/mL (1000 ng/mL))
binding (LILRA6 (human) [20]): no binding (tested: 10^3.0 ng/mL (1000 ng/mL))
